# Data from the supplement of paper PMC11732987, “Enantioselective OTUD7B fragment discovery through chemoproteomics screening and high-throughput optimisation” (Communications Chemistry, 2025).
# By UniProt entry, the sequences of proteins in these tests, tags left out. Where a name states a change or a piece, a line headed by the entry shows the natural chain unless it says otherwise.
# UniProt Q8NDV7: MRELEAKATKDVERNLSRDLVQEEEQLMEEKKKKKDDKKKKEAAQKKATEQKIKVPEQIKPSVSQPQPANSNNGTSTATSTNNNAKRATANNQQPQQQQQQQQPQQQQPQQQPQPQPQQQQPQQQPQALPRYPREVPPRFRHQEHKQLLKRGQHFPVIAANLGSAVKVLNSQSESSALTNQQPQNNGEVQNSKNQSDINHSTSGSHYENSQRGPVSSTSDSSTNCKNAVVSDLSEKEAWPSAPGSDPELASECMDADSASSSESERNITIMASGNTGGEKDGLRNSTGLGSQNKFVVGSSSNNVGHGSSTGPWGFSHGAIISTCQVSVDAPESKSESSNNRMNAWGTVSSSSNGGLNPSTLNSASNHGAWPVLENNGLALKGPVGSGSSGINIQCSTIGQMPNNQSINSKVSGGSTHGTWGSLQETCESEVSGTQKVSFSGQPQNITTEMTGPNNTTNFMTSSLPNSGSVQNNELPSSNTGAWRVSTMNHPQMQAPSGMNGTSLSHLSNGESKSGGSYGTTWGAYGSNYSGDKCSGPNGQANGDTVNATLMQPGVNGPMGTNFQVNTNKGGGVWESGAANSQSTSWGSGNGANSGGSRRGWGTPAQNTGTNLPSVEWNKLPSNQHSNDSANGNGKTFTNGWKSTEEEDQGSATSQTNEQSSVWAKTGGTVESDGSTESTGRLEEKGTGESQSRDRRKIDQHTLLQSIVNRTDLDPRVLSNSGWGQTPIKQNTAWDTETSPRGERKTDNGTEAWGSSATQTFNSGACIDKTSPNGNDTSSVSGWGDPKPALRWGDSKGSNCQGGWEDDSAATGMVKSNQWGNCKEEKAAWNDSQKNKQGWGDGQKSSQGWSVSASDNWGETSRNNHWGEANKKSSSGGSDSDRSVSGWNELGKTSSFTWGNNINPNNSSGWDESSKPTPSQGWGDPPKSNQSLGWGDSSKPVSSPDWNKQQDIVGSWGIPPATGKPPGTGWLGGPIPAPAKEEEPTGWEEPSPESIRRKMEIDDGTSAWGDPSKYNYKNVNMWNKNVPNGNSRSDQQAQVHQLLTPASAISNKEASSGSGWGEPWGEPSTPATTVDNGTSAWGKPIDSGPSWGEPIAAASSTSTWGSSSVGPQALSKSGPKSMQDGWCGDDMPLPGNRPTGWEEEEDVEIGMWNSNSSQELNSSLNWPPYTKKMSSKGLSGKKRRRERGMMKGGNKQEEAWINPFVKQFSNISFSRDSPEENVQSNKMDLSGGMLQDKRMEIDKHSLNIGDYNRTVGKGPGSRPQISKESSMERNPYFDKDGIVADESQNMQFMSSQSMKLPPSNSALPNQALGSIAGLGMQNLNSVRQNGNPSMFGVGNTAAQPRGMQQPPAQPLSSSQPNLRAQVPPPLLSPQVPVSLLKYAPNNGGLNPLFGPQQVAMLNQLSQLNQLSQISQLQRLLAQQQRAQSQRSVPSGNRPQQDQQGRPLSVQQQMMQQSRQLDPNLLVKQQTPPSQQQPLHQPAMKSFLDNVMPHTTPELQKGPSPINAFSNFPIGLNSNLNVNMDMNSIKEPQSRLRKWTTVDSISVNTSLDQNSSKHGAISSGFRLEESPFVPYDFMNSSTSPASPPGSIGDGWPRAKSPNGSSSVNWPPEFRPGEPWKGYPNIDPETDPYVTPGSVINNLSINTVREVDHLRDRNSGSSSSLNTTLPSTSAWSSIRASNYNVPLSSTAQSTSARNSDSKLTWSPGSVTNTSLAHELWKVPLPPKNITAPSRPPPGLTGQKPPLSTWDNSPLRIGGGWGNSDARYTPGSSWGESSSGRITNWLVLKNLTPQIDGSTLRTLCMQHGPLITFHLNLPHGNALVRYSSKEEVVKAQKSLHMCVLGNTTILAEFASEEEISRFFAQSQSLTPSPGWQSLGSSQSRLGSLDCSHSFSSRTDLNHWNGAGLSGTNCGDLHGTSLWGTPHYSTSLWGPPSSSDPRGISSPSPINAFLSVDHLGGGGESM
# UniProt Q9UDY2: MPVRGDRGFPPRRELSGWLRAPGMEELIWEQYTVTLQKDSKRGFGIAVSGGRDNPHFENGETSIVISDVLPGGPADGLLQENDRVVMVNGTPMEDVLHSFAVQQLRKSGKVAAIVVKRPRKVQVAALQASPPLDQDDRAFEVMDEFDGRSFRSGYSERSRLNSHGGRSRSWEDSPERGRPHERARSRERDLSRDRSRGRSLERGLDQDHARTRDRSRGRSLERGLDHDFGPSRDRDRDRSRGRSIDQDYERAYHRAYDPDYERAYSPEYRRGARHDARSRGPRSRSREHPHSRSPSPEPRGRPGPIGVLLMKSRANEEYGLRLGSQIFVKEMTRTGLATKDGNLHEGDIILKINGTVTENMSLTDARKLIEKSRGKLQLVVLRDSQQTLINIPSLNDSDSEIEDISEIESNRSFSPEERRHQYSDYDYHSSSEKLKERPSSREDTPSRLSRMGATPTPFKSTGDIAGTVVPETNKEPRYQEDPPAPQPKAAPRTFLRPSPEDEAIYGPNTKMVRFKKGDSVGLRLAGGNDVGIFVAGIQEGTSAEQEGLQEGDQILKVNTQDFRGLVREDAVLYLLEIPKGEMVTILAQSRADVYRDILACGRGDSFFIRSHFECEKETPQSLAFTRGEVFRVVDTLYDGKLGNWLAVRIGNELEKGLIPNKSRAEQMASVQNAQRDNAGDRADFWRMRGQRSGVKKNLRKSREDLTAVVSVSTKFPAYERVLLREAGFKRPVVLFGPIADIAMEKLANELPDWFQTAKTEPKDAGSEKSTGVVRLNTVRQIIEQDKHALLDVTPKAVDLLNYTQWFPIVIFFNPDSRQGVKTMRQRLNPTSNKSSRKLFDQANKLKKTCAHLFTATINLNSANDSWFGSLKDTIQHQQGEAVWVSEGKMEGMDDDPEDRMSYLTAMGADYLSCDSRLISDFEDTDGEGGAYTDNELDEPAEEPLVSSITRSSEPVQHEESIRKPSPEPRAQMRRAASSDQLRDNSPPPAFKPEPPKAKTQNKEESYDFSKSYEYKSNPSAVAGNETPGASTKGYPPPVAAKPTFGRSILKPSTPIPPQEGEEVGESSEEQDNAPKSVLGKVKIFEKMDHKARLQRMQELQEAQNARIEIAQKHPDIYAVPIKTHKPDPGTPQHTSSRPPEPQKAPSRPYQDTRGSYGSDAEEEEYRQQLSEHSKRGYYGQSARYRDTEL
# UniProt Q96DC7: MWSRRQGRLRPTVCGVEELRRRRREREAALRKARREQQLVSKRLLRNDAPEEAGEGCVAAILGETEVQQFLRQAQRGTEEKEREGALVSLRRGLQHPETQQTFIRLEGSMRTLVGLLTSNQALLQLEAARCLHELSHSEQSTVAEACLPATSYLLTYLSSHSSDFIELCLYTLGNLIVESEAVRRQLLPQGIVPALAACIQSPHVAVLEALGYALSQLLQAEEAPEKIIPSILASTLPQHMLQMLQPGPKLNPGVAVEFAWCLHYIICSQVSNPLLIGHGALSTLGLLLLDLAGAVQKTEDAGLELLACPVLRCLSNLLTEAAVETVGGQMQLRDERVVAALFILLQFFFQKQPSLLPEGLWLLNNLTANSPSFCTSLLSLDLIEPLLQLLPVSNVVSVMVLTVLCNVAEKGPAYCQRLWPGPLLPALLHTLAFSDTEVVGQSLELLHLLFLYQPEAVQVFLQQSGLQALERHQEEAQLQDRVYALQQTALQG
# UniProt Q9BVW5: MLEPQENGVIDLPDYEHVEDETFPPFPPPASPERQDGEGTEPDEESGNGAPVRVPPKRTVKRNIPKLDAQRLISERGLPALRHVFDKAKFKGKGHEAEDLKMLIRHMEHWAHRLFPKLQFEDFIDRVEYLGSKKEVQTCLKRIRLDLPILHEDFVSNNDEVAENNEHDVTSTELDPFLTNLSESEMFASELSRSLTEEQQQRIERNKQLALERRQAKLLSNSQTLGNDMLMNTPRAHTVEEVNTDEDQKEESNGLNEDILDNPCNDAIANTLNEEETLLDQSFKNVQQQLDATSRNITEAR
# UniProt Q9ULW0: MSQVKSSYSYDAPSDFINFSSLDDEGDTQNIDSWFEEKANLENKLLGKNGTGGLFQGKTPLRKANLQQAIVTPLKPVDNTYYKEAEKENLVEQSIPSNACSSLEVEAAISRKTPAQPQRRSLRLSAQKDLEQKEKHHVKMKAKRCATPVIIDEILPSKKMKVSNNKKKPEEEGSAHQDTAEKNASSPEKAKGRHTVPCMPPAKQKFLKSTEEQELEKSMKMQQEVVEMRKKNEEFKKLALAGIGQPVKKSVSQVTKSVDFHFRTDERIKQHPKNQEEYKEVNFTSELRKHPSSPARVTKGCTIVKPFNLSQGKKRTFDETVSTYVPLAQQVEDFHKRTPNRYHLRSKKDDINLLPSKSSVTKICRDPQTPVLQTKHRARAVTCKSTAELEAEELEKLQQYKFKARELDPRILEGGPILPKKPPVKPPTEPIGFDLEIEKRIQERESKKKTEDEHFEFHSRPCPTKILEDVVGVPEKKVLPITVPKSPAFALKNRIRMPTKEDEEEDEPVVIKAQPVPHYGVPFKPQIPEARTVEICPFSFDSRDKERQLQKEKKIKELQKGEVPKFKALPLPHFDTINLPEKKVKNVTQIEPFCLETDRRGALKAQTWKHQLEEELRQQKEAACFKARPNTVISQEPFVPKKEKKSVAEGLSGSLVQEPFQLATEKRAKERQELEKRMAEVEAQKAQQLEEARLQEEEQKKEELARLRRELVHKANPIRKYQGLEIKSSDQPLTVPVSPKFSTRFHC
# UniProt Q7Z392: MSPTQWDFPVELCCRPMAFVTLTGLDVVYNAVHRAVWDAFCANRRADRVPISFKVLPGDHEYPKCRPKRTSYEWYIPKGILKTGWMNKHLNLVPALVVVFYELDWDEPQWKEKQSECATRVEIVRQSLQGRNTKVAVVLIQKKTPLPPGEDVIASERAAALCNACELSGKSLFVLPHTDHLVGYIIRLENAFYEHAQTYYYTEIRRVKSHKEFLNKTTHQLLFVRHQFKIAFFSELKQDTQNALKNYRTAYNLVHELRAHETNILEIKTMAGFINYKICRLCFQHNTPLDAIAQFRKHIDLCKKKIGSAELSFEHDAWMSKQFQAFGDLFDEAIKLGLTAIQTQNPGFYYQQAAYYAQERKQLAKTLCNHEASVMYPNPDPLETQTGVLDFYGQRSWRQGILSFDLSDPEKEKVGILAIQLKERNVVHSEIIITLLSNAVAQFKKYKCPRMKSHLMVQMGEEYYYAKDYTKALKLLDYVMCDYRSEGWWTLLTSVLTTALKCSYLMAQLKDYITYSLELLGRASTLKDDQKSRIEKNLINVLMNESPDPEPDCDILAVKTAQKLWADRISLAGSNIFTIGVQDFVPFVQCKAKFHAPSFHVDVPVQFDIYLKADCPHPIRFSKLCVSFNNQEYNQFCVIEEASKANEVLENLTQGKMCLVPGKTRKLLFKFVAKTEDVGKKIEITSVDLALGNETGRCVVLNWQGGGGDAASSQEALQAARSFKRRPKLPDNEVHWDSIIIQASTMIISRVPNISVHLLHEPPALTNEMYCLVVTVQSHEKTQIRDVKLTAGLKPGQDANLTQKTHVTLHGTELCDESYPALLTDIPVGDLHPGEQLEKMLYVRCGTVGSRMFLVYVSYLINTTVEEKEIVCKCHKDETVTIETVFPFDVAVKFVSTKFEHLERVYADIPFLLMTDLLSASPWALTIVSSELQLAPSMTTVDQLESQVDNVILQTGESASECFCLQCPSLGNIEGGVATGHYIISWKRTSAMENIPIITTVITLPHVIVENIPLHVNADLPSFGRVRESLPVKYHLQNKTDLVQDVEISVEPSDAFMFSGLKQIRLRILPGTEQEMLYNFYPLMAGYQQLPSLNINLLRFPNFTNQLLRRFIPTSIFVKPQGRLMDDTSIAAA
# UniProt Q9NWD8: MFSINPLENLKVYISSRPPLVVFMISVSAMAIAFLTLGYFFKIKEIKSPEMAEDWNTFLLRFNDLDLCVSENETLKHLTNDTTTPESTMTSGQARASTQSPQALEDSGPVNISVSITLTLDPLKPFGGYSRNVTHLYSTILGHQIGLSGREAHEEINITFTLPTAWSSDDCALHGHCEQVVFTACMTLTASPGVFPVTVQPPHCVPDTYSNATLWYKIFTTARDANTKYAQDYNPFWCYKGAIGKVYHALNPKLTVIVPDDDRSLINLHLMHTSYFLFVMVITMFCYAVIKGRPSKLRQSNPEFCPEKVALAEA
# UniProt Q9H4I3: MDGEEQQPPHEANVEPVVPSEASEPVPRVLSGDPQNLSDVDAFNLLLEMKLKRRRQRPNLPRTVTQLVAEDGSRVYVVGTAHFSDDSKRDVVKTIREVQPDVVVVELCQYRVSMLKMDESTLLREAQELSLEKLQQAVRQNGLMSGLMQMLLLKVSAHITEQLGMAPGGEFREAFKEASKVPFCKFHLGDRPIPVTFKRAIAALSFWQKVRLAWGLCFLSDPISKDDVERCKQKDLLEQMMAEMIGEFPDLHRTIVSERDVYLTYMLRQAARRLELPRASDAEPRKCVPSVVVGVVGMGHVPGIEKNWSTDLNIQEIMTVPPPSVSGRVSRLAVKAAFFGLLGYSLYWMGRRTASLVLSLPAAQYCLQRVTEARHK
# Some of the results follow. The data scatter; read single values as rough.
# Key:
# [1] = compound: ClCC(=O)N[C@@H]1CCCc2ccccc12; test: log2 mean competition ratio of IA-DTB cysteine labelling (DMSO/compound) (log2 ratio); higher = stronger cysteine engagement by compound; details: treatment time: 4 h, cell line lysate: HEK293T
# Protocol: (§1)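 IA-DTB competitive cysteine chemoproteomics in HEK293T RIPA lysate. Lysates were treated with compound 29 or 30 at 50 or 200 µM for 4 h, then IA-DTB (500 µM, 1 h), trypsin-digested, NeutrAvidin-enriched and analysed by diaPASEF. Competition ratio = intensity DMSO / intensity compound (n=4 treated, n=64 DMSO); binding: mean log2 CR ≥ 1 and p ≤ 0.05 plus QC filters. Target is the cysteine site.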
# [2] = compound: ClCC(=O)N[C@H]1CCCc2ccccc12; test: as above; details: treatment time: 4 h, cell line lysate: HEK293T
# Protocol: as §1
Target,log2 mean competition ratio ([1]; 50 µM),log2 mean competition ratio ([1]; 200 µM),log2 mean competition ratio ([2]; 50 µM),log2 mean competition ratio ([2]; 200 µM)
TNRC6A C225 (UniProt Q8NDV7),-0.129,-0.138,0.244,-0.0335
TNFRSF10B C248 (UniProt O14763),-0.134,-0.0364,-0.0501,-0.0281
TJP2 C615 (UniProt Q9UDY2),0.0571,-0.0275,0.0974,-0.145
TMCO6 C309 (UniProt Q96DC7),0.125,0.822,-0.236,0.925
TIPIN C139 (UniProt Q9BVW5),0.403,-0.221,-0.138,-0.116
TIMELESS C700 (UniProt Q9UNS1),0.274,-0.00945,0.247,-0.39
TPX2 C145 (UniProt Q9ULW0),0.438,0.0498,-0.121,0.0499
TRIP11 C212 (UniProt Q15643),-0.315,0.425,-0.431,0.0715
TPX2 C364 (UniProt Q9ULW0),0.157,0.121,-0.212,0.106
TRAPPC11 C481 (UniProt Q7Z392),-0.0756,-0.333,-0.117,-0.31
TMEM248 C305 (UniProt Q9NWD8),-0.18,-0.0444,-0.213,0.236
TNPO3 C908 (UniProt Q9Y5L0),-0.318,0.304,0.0232,0.404
TK1 C230,-0.23,-0.201,-0.0967,0.214
TRABD C108 (UniProt Q9H4I3),-0.231,-0.115,-0.137,-0.0691
TNPO3 C303 (UniProt Q9Y5L0),-0.191,-0.305,-0.242,-0.0246

# Limited to log2 mean competition ratio ([2]; 50 µM), log2 mean competition ratio ([1]; 50 µM) and log2 mean competition ratio ([1]; 200 µM), for some of the entries so far:
Target | log2 mean competition ratio ([2]; 50 µM) | log2 mean competition ratio ([1]; 50 µM) | log2 mean competition ratio ([1]; 200 µM)
TK1 C230 | -0.0967 | -0.23 | -0.201
TRABD C108 (UniProt Q9H4I3) | -0.137 | -0.231 | -0.115
